The list shows a part of the results. The data scatter; read single values as rough.
What was measured:
[1] = compound: ClCC(=O)N[C@@H]1CCCc2ccccc12; assay: log2 mean competition ratio of IA-DTB cysteine labelling (DMSO/compound) (log2 ratio); higher = stronger cysteine engagement by compound; settings: treatment time: 4 h, cell line lysate: HEK293T
Experimental: (§1)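 IA-DTB competitive cysteine chemoproteomics in HEK293T RIPA lysate. Lysates were treated with compound 29 or 30 at 50 or 200 µM for 4 h, then IA-DTB (500 µM, 1 h), trypsin-digested, NeutrAvidin-enriched and analysed by diaPASEF. Competition ratio = intensity DMSO / intensity compound (n=4 treated, n=64 DMSO); binding: mean log2 CR ≥ 1 and p ≤ 0.05 plus QC filters. Target is the cysteine site.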

Sequences of proteins named here, by UniProt entry; tags and fusion partners are left off. A change or cut given only in a name is not applied to a line headed by its entry. Residues count along the entry.
UniProt P21359: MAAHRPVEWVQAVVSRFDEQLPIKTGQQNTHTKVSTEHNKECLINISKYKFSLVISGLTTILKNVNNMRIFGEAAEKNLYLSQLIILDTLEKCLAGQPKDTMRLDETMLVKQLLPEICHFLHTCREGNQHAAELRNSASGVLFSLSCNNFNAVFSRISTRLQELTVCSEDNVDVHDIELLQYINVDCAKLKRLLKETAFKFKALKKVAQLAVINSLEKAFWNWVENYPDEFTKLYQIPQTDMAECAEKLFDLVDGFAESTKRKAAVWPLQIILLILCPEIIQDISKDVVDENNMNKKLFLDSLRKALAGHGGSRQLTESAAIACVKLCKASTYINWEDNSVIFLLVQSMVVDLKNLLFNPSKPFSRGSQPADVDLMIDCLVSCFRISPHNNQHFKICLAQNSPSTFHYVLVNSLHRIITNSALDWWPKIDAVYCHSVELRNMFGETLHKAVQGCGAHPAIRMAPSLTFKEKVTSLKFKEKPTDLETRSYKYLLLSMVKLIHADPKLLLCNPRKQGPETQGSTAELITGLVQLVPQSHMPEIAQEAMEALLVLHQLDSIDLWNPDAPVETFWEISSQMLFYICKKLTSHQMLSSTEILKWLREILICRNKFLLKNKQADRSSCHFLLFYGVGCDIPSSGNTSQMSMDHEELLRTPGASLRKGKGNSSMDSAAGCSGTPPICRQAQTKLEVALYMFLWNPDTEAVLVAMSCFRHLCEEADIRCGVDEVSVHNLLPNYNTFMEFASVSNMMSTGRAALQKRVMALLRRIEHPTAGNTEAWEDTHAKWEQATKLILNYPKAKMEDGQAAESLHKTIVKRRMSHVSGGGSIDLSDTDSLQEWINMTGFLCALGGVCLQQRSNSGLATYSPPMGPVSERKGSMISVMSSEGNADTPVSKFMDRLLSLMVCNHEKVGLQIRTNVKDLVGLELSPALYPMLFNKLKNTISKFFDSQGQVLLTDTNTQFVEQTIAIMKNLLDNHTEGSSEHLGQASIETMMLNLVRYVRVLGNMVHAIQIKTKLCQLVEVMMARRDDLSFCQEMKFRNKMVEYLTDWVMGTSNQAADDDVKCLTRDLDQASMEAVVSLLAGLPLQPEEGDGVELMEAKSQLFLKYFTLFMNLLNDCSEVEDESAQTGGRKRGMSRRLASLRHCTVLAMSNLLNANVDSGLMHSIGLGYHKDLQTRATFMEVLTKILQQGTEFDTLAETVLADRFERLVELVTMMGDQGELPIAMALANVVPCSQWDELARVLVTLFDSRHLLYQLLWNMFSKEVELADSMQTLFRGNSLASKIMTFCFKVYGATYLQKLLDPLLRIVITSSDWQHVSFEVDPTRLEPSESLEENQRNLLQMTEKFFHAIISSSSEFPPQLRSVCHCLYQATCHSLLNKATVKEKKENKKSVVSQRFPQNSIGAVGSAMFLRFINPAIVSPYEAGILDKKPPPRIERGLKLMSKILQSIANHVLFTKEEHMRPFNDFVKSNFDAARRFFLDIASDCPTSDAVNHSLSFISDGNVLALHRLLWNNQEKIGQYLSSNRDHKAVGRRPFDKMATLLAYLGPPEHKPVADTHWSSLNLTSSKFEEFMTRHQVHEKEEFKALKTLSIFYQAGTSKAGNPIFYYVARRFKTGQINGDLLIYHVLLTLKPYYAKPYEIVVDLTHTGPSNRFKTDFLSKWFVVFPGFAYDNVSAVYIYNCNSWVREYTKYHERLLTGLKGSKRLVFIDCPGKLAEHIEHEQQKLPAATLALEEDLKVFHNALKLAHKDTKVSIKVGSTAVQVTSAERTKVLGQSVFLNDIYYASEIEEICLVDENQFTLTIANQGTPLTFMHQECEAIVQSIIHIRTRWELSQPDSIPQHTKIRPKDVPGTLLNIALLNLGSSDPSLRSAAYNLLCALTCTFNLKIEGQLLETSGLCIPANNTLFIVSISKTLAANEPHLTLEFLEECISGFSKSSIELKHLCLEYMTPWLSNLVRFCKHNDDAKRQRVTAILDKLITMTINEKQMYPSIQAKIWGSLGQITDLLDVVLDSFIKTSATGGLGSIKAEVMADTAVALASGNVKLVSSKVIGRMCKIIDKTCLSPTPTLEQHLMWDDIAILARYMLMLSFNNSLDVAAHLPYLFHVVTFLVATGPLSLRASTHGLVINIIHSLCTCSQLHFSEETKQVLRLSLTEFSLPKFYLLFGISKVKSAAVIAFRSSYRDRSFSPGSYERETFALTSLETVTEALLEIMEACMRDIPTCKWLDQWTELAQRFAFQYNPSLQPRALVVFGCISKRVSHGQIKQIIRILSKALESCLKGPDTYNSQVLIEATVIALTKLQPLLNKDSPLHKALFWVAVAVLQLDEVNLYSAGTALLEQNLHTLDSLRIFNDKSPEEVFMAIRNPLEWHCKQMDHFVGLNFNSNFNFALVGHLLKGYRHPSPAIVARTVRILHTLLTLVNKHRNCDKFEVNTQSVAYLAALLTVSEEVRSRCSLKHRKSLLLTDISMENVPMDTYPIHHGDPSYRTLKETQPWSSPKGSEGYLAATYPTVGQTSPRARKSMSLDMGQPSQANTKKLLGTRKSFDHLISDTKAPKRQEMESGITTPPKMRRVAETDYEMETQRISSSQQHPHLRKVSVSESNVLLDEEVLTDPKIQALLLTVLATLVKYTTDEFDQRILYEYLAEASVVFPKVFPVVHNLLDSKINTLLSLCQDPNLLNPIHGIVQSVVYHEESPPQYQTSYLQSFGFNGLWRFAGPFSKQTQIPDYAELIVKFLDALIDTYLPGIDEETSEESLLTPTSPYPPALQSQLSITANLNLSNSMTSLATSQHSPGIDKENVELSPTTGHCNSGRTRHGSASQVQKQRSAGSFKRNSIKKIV
UniProt Q330K2: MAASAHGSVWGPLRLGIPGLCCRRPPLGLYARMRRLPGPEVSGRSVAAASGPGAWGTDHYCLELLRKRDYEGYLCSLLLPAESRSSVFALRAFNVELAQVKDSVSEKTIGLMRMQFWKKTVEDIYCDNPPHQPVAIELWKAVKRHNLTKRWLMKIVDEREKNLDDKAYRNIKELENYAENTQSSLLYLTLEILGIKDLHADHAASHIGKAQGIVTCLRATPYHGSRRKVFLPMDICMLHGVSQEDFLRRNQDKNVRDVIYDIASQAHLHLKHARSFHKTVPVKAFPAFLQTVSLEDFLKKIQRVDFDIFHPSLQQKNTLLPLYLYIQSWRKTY
UniProt Q92597, 20-53: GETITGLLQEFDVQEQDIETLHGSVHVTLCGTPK
UniProt Q8WX92, whole entry, looked up: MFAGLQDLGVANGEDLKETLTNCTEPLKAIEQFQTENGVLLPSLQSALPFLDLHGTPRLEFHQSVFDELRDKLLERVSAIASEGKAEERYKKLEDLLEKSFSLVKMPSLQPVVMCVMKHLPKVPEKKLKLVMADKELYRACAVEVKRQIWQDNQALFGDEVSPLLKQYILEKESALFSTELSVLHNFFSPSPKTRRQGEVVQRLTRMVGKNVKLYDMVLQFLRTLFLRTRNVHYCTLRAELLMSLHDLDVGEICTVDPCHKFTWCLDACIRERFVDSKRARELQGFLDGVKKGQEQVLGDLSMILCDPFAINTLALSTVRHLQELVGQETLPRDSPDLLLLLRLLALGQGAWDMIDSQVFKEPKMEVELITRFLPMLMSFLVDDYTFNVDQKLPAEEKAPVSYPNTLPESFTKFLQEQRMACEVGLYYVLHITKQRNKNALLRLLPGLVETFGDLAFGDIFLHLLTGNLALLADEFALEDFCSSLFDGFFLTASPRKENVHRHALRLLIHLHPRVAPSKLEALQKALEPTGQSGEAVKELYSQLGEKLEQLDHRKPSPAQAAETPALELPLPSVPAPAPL
UniProt Q9NYR9: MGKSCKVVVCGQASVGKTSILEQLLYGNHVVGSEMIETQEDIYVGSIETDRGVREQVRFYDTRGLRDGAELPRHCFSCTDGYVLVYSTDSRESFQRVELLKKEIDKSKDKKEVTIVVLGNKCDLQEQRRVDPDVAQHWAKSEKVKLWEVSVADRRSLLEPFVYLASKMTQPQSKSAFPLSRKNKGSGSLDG
UniProt Q9NX14: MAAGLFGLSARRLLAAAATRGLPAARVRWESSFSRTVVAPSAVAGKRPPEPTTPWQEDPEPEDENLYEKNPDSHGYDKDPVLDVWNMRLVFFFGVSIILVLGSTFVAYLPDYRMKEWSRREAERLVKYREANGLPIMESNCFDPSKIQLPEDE
UniProt Q9BZQ8: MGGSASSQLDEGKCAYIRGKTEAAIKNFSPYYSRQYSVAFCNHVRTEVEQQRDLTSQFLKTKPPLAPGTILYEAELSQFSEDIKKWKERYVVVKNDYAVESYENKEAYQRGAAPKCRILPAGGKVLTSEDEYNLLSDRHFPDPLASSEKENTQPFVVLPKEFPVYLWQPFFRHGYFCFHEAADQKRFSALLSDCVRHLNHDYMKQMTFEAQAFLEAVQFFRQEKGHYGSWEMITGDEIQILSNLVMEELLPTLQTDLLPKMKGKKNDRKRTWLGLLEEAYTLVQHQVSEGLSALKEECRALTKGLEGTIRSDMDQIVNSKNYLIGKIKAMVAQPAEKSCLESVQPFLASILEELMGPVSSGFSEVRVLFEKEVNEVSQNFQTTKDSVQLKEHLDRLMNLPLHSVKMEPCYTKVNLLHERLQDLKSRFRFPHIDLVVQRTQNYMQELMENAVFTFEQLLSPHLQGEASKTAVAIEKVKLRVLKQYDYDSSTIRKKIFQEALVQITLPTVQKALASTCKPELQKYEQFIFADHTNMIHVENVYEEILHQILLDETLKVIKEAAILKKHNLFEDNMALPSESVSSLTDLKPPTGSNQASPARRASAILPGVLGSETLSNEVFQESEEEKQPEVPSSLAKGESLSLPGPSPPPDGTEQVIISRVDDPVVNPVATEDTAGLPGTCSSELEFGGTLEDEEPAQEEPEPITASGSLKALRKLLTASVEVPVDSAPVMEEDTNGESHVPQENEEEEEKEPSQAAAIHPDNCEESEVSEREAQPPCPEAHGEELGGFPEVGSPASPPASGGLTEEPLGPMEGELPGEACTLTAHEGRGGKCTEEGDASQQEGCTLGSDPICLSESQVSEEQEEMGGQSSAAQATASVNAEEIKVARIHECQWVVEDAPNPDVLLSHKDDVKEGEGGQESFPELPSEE
UniProt Q8TD19: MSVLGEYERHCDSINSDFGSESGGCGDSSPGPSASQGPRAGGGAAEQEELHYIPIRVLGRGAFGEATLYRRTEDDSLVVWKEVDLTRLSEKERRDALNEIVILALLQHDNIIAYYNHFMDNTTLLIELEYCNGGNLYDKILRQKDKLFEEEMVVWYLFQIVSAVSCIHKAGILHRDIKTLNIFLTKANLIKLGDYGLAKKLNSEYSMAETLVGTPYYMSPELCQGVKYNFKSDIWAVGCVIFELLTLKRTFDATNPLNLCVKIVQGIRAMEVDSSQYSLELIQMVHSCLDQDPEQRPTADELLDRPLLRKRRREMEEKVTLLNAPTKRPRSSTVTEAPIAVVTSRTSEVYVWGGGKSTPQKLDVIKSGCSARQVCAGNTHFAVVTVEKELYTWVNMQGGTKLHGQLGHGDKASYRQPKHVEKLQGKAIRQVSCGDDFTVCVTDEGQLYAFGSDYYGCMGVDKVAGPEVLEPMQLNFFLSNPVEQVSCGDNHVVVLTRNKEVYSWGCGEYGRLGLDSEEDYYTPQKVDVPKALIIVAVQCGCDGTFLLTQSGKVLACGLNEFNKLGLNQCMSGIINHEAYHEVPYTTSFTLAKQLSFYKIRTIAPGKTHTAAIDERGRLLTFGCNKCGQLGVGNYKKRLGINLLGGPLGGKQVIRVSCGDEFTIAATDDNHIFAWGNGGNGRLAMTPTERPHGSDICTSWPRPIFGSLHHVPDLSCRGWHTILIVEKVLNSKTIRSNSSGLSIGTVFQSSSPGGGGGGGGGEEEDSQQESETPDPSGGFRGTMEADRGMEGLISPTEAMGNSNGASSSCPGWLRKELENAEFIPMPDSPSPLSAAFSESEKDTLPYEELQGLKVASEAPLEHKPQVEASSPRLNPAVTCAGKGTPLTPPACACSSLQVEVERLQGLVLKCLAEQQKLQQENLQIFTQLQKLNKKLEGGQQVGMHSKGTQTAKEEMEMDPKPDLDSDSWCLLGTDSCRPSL
UniProt P17568, whole entry, looked up: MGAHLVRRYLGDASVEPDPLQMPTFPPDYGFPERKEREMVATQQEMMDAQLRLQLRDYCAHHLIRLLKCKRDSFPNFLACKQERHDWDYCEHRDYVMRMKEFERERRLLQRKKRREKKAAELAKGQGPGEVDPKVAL
UniProt O95299, 85-116: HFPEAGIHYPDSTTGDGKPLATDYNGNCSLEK
UniProt O43920: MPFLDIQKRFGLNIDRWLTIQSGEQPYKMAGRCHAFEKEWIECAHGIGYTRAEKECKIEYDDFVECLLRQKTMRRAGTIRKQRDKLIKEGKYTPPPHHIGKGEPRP
UniProt Q9NX24: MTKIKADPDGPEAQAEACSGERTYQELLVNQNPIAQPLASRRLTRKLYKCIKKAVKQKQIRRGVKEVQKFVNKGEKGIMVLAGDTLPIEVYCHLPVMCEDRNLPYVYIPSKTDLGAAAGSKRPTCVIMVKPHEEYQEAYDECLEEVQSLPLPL

[2] = compound: ClCC(=O)N[C@H]1CCCc2ccccc12; assay: as above; settings: treatment time: 4 h, cell line lysate: HEK293T
Experimental: as §1

Target: NF1 C904 (UniProt P21359)
- log2 mean competition ratio ([1]; 50 µM): 0.373
- log2 mean competition ratio ([1]; 200 µM): 0.206
- log2 mean competition ratio ([2]; 50 µM): 0.463
- log2 mean competition ratio ([2]; 200 µM): 0.174

Target: NOMO3;NOMO2 C788;(C788)
- log2 mean competition ratio ([1]; 50 µM): 0.0867
- log2 mean competition ratio ([1]; 200 µM): 0.141
- log2 mean competition ratio ([2]; 50 µM): -0.185
- log2 mean competition ratio ([2]; 200 µM): -0.167

Target: NDUFAF6 C216 (UniProt Q330K2)
- log2 mean competition ratio ([1]; 50 µM): 0.214
- log2 mean competition ratio ([1]; 200 µM): -0.213
- log2 mean competition ratio ([2]; 50 µM): 0.786
- log2 mean competition ratio ([2]; 200 µM): -0.174

Target: NCKIPSD C700 (UniProt Q9NZQ3)
- log2 mean competition ratio ([1]; 50 µM): -0.107
- log2 mean competition ratio ([1]; 200 µM): 0.252
- log2 mean competition ratio ([2]; 50 µM): -0.0848
- log2 mean competition ratio ([2]; 200 µM): 0.0575

Target: NFX1 C92 (UniProt Q12986)
- log2 mean competition ratio ([1]; 50 µM): 0.139
- log2 mean competition ratio ([1]; 200 µM): 0.248
- log2 mean competition ratio ([2]; 50 µM): 0.0326
- log2 mean competition ratio ([2]; 200 µM): 0.262

Target: NKTR C964 (UniProt P30414)
- log2 mean competition ratio ([1]; 50 µM): -0.314
- log2 mean competition ratio ([1]; 200 µM): 0.579
- log2 mean competition ratio ([2]; 50 µM): -0.0481
- log2 mean competition ratio ([2]; 200 µM): -0.209

Target: NINL C1009
- log2 mean competition ratio ([1]; 50 µM): -0.0439
- log2 mean competition ratio ([1]; 200 µM): -0.0222
- log2 mean competition ratio ([2]; 50 µM): -0.12
- log2 mean competition ratio ([2]; 200 µM): -0.395

Target: NDRG1 C49 (UniProt Q92597)
- log2 mean competition ratio ([1]; 50 µM): -0.306
- log2 mean competition ratio ([1]; 200 µM): -0.459
- log2 mean competition ratio ([2]; 50 µM): 0.961
- log2 mean competition ratio ([2]; 200 µM): -0.714

Target: NFX1 C295 (UniProt Q12986)
- log2 mean competition ratio ([1]; 50 µM): 0.0212
- log2 mean competition ratio ([1]; 200 µM): 0.0765
- log2 mean competition ratio ([2]; 50 µM): -0.176
- log2 mean competition ratio ([2]; 200 µM): 0.0757

Target: NCOA7 C439 (UniProt Q8NI08)
- log2 mean competition ratio ([1]; 50 µM): -0.48
- log2 mean competition ratio ([1]; 200 µM): 0.218
- log2 mean competition ratio ([2]; 50 µM): -0.427
- log2 mean competition ratio ([2]; 200 µM): 0.0952

Target: NELFB C23 (UniProt Q8WX92)
- log2 mean competition ratio ([1]; 50 µM): -0.0633
- log2 mean competition ratio ([1]; 200 µM): -0.44
- log2 mean competition ratio ([2]; 50 µM): -0.0203
- log2 mean competition ratio ([2]; 200 µM): -0.159

Target: NAV2 C1288 (UniProt Q8IVL1)
- log2 mean competition ratio ([1]; 50 µM): -0.127
- log2 mean competition ratio ([1]; 200 µM): -0.183
- log2 mean competition ratio ([2]; 50 µM): -0.207
- log2 mean competition ratio ([2]; 200 µM): -0.605

Target: NCOA7 C487 (UniProt Q8NI08)
- log2 mean competition ratio ([1]; 50 µM): 0.00997
- log2 mean competition ratio ([1]; 200 µM): -0.0493
- log2 mean competition ratio ([2]; 50 µM): 0.195
- log2 mean competition ratio ([2]; 200 µM): 0.0275

Target: NCDN C98 (UniProt Q9UBB6)
- log2 mean competition ratio ([1]; 50 µM): -0.0737
- log2 mean competition ratio ([1]; 200 µM): 0.0433
- log2 mean competition ratio ([2]; 50 µM): -0.252
- log2 mean competition ratio ([2]; 200 µM): 0.0935

Target: NCKIPSD C138 (UniProt Q9NZQ3)
- log2 mean competition ratio ([1]; 50 µM): -0.304
- log2 mean competition ratio ([1]; 200 µM): 0.289
- log2 mean competition ratio ([2]; 50 µM): -0.0915
- log2 mean competition ratio ([2]; 200 µM): 0.335

Target: NCOA1 C831 (UniProt Q15788)
- log2 mean competition ratio ([1]; 50 µM): 0.127
- log2 mean competition ratio ([1]; 200 µM): -0.281
- log2 mean competition ratio ([2]; 50 µM): 0.13
- log2 mean competition ratio ([2]; 200 µM): -0.117

Target: NKIRAS2 C10 (UniProt Q9NYR9)
- log2 mean competition ratio ([1]; 50 µM): 0.103
- log2 mean competition ratio ([1]; 200 µM): 0.0599
- log2 mean competition ratio ([2]; 50 µM): -0.0514
- log2 mean competition ratio ([2]; 200 µM): 0.0399

Target: NDUFB11 C141 (UniProt Q9NX14)
- log2 mean competition ratio ([1]; 50 µM): -0.136
- log2 mean competition ratio ([1]; 200 µM): -0.0858
- log2 mean competition ratio ([2]; 50 µM): 0.213
- log2 mean competition ratio ([2]; 200 µM): 0.0372

Target: NKD1 C112
- log2 mean competition ratio ([1]; 50 µM): -0.102
- log2 mean competition ratio ([1]; 200 µM): -0.0246
- log2 mean competition ratio ([2]; 50 µM): 0.00957
- log2 mean competition ratio ([2]; 200 µM): -0.0405

Target: NCAPG2 C443 (UniProt Q86XI2)
- log2 mean competition ratio ([1]; 50 µM): 0.352
- log2 mean competition ratio ([1]; 200 µM): 0.0606
- log2 mean competition ratio ([2]; 50 µM): -0.0865
- log2 mean competition ratio ([2]; 200 µM): 0.257

Target: NIBAN1 C409 (UniProt Q9BZQ8)
- log2 mean competition ratio ([1]; 50 µM): -0.074
- log2 mean competition ratio ([1]; 200 µM): -0.0392
- log2 mean competition ratio ([2]; 50 µM): 0.121
- log2 mean competition ratio ([2]; 200 µM): 0.0437

Target: NKRF C246 (UniProt O15226)
- log2 mean competition ratio ([2]; 50 µM): 0.287
- log2 mean competition ratio ([2]; 200 µM): 0.436

Target: NEK9 C623 (UniProt Q8TD19)
- log2 mean competition ratio ([2]; 50 µM): 0.676
- log2 mean competition ratio ([2]; 200 µM): 0.426

Target: NDUFA7 C55
- log2 mean competition ratio ([2]; 50 µM): 0.393
- log2 mean competition ratio ([2]; 200 µM): 0.136

Target: NDUFB7 C80 (UniProt P17568)
- log2 mean competition ratio ([1]; 200 µM): 0.338
- log2 mean competition ratio ([2]; 200 µM): 0.453

Target: NDUFA10 C112 (UniProt O95299)
- log2 mean competition ratio ([2]; 50 µM): 0.0297
- log2 mean competition ratio ([2]; 200 µM): 0.104

Target: NFKB2 C57 (UniProt Q00653)
- log2 mean competition ratio ([2]; 50 µM): -0.331
- log2 mean competition ratio ([2]; 200 µM): -0.114

Target: NDUFS5 C66 (UniProt O43920)
- log2 mean competition ratio ([1]; 200 µM): -0.0691
- log2 mean competition ratio ([2]; 50 µM): -0.147
- log2 mean competition ratio ([2]; 200 µM): -0.205

Target: NHP2 C18 (UniProt Q9NX24)
- log2 mean competition ratio ([2]; 50 µM): -0.545
- log2 mean competition ratio ([2]; 200 µM): -0.104

Target: NOL10 C55 (UniProt Q9BSC4)
- log2 mean competition ratio ([1]; 200 µM): -0.474
- log2 mean competition ratio ([2]; 50 µM): -0.277
- log2 mean competition ratio ([2]; 200 µM): 0.351

From the supplement of paper PMC11732987, “Enantioselective OTUD7B fragment discovery through chemoproteomics screening and high-throughput optimisation” (Communications Chemistry, 2025)
